PubChem BioAssay AID504784 – Drosophila RNAi Screening Center, 2011
The screen tested about 17,000 reagents; this is an unselected part of those with a known target gene and a result. 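Each column is one replicate's B-score; the combined score over replicates was not deposited, so single values may mislead.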 Reagents against one gene are numbered here. Names joined by + are all predicted targets of the reagent.

Purpose: 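Fly genes whose silencing alters how much lipid cells keep in droplets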 (primary screen)
Cells: Drosophila Kc167 embryonic cells
Reagents: long dsRNA against Drosophila genes, about 250 ng dsRNA per well
Time to read-out: 4 days
Challenge: cells fed 400 µM oleic acid bound to BSA
Measurement: 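Microscope images give a droplet-to-nucleus area ratio, taken as log and converted to a screen-wide B-score; higher values mean greater lipid storage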
Scale: droplet/nuclear area B-score: higher = more stored lipid (overstorage)

predicted target	dsRNA no.	droplet/nuclear area B-score, replicate 1	droplet/nuclear area B-score, replicate 2	droplet/nuclear area B-score, replicate 3
CG14451	1	1.26	0.224	
CG7884	1	0.0204	0.13	
CG7849	1	0.0627	3.16	
CG31681	1	-0.382	-0.351	
Unc50	1	0.622	1.23	
Cul3	1	-2.21	-1.55	
Cul3	2	-0.426	-0.34	
CG18675	1	-0.318	0.0602	
l(1)10Bb	1	-1.54	-0.029	-1.23
RpL21	1	2.59	9.92	
row	1	4.37		
row	2	0.65	0.562	
sqh	1	-0.551	0.0947	-0.0513
Ucp4B	1	-0.14	0.801	
CG13078	1	0.949	0.0111	
CG15160	1	-0.0339	0.179	
RpS11	1	6.35	4.71	-1.55
RpS11	2	2.5	2.99	
CG13113	1	-0.111	-0.213	
GstE4	1	-0.803	0.525	
CG15767	1	0.82		
CG13457	1	0.966	1.74	
Snap24	1	-0.179	0.127	
CG6179	1	3.89	4.2	
Zip89B	1	-0.908	-1.28	
Ada3	1	-0.152	-0.172	
Ada3	2	-1.05	-0.554	
Cerk	1	-2.45	-0.237	
CG12547	1	-0.689	0.353	
mnd	1	0.124	2.46	
Idh3a	1	-0.214	0.173	
mRpL4	1	0.323	1.18	
CG42245 + MEP-1	1	2.5	0.482	
CG42245 + MEP-1	2	-0.0203		
CG42245 + MEP-1	3	2.54	1.54	
Phf5a	1	-0.823	-2.21	
CG7789	1	1.04	-1.02	
Iyd	1	-0.471	-1.26	
Iyd	2	2.04	0.00233	
CG30010	1	0.39	1	
sov	1	-0.139	-0.788	-0.0562
CG14689	1	-0.231	-0.126	
CG13723	1	-0.166	0.723	
Adgf-A	1	0.71	-0.879	0.0505
Prosalpha5	1	-2.17	1.84	
CG7246	1	-1.05	1.48	
CG17010	1	0.208	0.516	
ex	1	-0.0183	0.578	
stj	1	-0.156	0.11	
Ras85D	1	-0.172	0.333	
CG15196	1	0.225	-0.428	-1.01
Ing3	1	0.035	0.617	-1.27
NELF-B	1	-0.459	-1.38	-0.373
Gr22c	1	-0.916	-0.00265	
beat-VI	1	0.598	1.87	
beat-VI	2	0.273	-0.0486	
CG8072	1	1.17	0.974	
ORMDL	1	0.392	-1.91	
CG8833	1	-1.8	1.36	0.749
CG5731	1	1.41	1.22	
RpL26	1	2.71	3.04	
Pex19	1	-0.391	0.12	
Cdc27	1	-0.784	0.394	
ko	1	-0.045	-0.832	
CG42340	1	-0.00222	-1.06	0.275
CG42340	2	-0.00419	-0.924	
CG42340	3	0.308	-0.146	
CG42340	4	-0.694	-1.07	
CG10822	1	0.0101	-0.0433	
CG33722 + CG18749	1	-0.695	0.738	
CG33722 + CG18749	2	-0.685	-1.69	
CG31464	1	-1.92	-1.05	
Rpp20 + CG33932	1	0.892	-0.321	
Datp	1	0.217	0.00274	
aurA	1	2.26	1.52	
TBC1D5	1	-0.855	-0.087	
PH4alphaEFB	1	-1.36	-0.344	
PH4alphaEFB	2	-1.97	0.649	
Gyc32E	1	-0.312	-0.464	
Cpr67Fa1	1	1.37	-0.037	
CG33296	1	0.893	1.52	
Aldh	1	-0.118	-2.25	
CG9920	1	-0.79	-1.14	
CG11293 (retired record)	1	-0.879	0.714	
DIP-alpha	1	-1.53	-0.0156	
DIP-alpha	2	0.316	-3.29	
DIP-alpha	3	0.555	1.89	
CG12116	1	-0.154	0.117	
retinin	1	1.17	0.732	
CG31093	1	0.537	-0.583	
Zfrp8	1	-2	-1.05	
nAChRalpha5	1	0.107	-1.25	
nAChRalpha5	2	-0.996	1.4	-0.157
nAChRalpha5	3	4.36	-0.498	
CG31259	1	-0.119	1.17	
Tpc2	1	-1.07	0.462	
zld	1	-0.993	-1.07	
zld	2	2.38	-0.985	
CG9932	1	1.87	1.61	
CG5543	1	-1.26	-0.819	
CG7730	1	-1.3	2.28	0
AttD	1	-0.437	0.0293	
Pfdn5	1	-0.0318	0.38	
CG15029 (retired record)	1	0.0877	-2.83	
r-cup	1	1.39	-0.0491	

Limited to “droplet/nuclear area B-score, replicate 1”, for 17 of the entries above:
sqh	-0.551
Ucp4B	-0.14
CG13078	0.949
CG15160	-0.0339
RpS11 #1	6.35
RpS11 #2	2.5
CG13113	-0.111
GstE4	-0.803
CG15767	0.82
CG13457	0.966
Snap24	-0.179
CG6179	3.89
Zip89B	-0.908
Ada3 #1	-0.152
Ada3 #2	-1.05
Cerk	-2.45
CG12547	-0.689
